Laboratory results reported in doi:10.1101/2021.07.26.453741.
These are yes or no findings as the source states them, for the method shown. Binding calls can cover weak binding; strength is not graded here. For part of these data: Binding seen in cells or lysates may run through a third protein.

What was measured:
[1] = biological target: Cpn20 (endogenous chloroplast co-chaperonin) (Chlamydomonas reinhardtii); assay: co-IP
[2] = biological target: ClpR6 (Chlamydomonas reinhardtii); assay: cryo-EM structure
[3] = biological target: ClpR3 (Chlamydomonas reinhardtii); assay: cryo-EM structure

Measured: binding

B1: ClpT4 (protein, UniProt A8J353 65-244)
chain: ATATAAPSELDDVGVSAAAESIIQYAINFARASETYEVHSWMVLMGILKYETCTAAKILKSLGLEDLYGAWNEVLWALNVCDGLQPRSFVTDIKFADRAFKVITAASDFAVWHGKDKMYSEDVLMALAAGGVLEDLFPDLNLSFERVRKAVEKESGRRYQLPDETEEAGPLKSEDDVSFL
binds: all assays above
